# Library screen at single concentrations

Data taken from ChEMBL document CHEMBL3988442, “University of Dundee, Small-Polar-MMV Screening Library” (2021).

Each number is a percent effect as filed. The record does not define 0% and 100%; most values in the screen are far below 50% and negative numbers occur (in some assays of this library far below -100). This is an unselected part of the compounds tested. Two or more numbers in one place are separate tests of the same structure; such repeats can differ widely.

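Cell assay of Leishmania donovani living inside macrophages; the read-out is not stated. Concentration: 30 µM. Direction is inferred from retests: higher values go with stronger inhibition. Size under these conditions: about 69,000 compounds, about 1,000 of them at 50% or above in at least one test.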

With CC(=O)N(Cc1noc(C)n1)C1CCN(CC(=O)N(C)C2CC2)C1 (centres unmarked) the screen gave 46.19%.
With COCC(NC1CSCCSC1)c1ccnn1C (centres unmarked) the screen gave 8.709%.
With CC(=O)N1CCC2(CC1)C(=O)N(CC1CC1)c1ccccc12 the screen gave 0.04383%.
With [H][C@]12CC[C@]([H])(CN(S(=O)(=O)c3cccnc3)C1)N(Cc1ccccn1)C2 the screen gave 34.63%.
With CS(=O)(=O)N1CCCC(C(=O)N2CCOc3ccccc32)C1 (centres unmarked) the screen gave 10.24%.
With [H][C@@]12NC(=O)N[C@@H](c3ccc(OC)cc3)[C@]1([H])CCCO2 the screen gave 15.57%.
With CS(=O)(=O)N[C@@H]1CN(Cc2ccccc2)C[C@H]1O the screen gave 9.839%.
With COc1ccc2c(c1)C1(CCN(Cc3cccnc3)CC1)N(C)CC2.O=C(O)C(F)(F)F.O=C(O)C(F)(F)F.O=C(O)C(F)(F)F the screen gave 36.18%.
With Cc1ccc2c(c1)C(N(C)C)CC21CCN(CCO)CC1.O=C(O)C(F)(F)F.O=C(O)C(F)(F)F (centres unmarked) the screen gave 1.939%.
With CCOCC1CN(Cc2nccs2)Cc2nn(CC3CC3)cc21.O=C(O)C(F)(F)F (centres unmarked) the screen gave 16.58%.
With COCc1noc(-c2ccc(N3CCC[C@H]3CO)nc2)n1 the screen gave 12.67%.
With Cc1nc(CN2CCN(CC3CCOC3)Cc3cccnc32)cs1.O=C(O)C(F)(F)F.O=C(O)C(F)(F)F.O=C(O)C(F)(F)F (centres unmarked) the screen gave 9.982% and 24.91%.
With COCC1CCN(C(=O)c2cn(Cc3cccc(C(F)(F)F)c3)nn2)C1 (centres unmarked) the screen gave 9.847% and -2.139%.
With O=C(NCc1ccco1)N(CCCO)C1CCCc2ccccc21 (centres unmarked) the screen gave -20%.
With CCn1cc(CN2CCCN(C(=O)c3ccccc3OC)CC2)cn1 the screen gave 17.26%.
With NC(=O)Nc1cccc(C(=O)N(Cc2ccc(F)cc2)C2CC2)c1 the screen gave 28.08%.
With O=C1CC(c2ccsc2)c2snc(C(=O)O)c2N1 (centres unmarked) the screen gave 9.625%.
With CCOc1cc(C)nc(N2CCN(C(=O)c3cscn3)CC2)n1 the screen gave 20.82%.
With O=C(NCc1cccc(F)c1)N1CCc2ncnc(NC3CC3)c2CC1 the screen gave 27.84%.
With CCc1noc(C(C)N2CCN(C(=O)CN3CCOCC3)CC2)n1 (centres unmarked) the screen gave 27.61%.
With Cc1cccc(C(=O)N2CCCCC2c2nc(C)cs2)n1 (centres unmarked) the screen gave 25.25%.
With CCc1ncc(CN2CCCC3(CCC(=O)N(CCC(C)C)C3)C2)cn1 (centres unmarked) the screen gave -9.319%.
With CC(O)CN1CC(C)(C)CN(C(=O)CCc2ccccc2)CC1=O (centres unmarked) the screen gave -1.72%.
With Cc1cc(C(C)NC(=O)N2CCC(n3cncn3)CC2)c(C)s1 (centres unmarked) the screen gave 32.15%.
With CN(CC(=O)Nc1cccc(F)c1)Cc1nc(N)nc(N(C)C)n1 the screen gave 21.77%.
With CCC(CC)c1cc(CNC(=O)N2CCCC(c3ncc[nH]3)C2)on1 (centres unmarked) the screen gave 8.667%.
With CCNC(=O)[C@@H]1C[C@@H](N)CN1C(=O)CCc1ccc(C)c(C)c1 the screen gave 21.91%.
With Cl.OC[C@H]1CC[C@]2(CC1)CN(Cc1ccccn1)Cc1ccccc1O2 the screen gave 4.32%.
With CCc1ocnc1C(=O)N1CCN(c2ccc3ccccc3c2)CC1 the screen gave 17.26%.
With O=C(Cn1ccc2ncccc2c1=O)N1CCSCC1 the screen gave -29.8%.
With CCOC(=O)C1(NCC(=O)Nc2cc(C)ccc2OC)CCCC1 the screen gave -8.752%.
With O=C(O)C(F)(F)F.[H][C@@]12CN(c3cccnc3)CC[C@]1([H])CN(c1cccc(F)c1)C2 the screen gave 57.72%.
With O=C(CCc1nnc(-c2ccccc2)o1)N1CCN(CC2CC2)CC1 the screen gave -38.5%.
With Cc1noc(C)c1CN1CCCC2(CCN(C(=O)N3CCOCC3)C2)C1 (centres unmarked) the screen gave 1.868%.
With O=C(O)C(F)(F)F.O=C(c1ccncc1)N1CCOC2(CCCN(c3nncs3)C2)C1 (centres unmarked) the screen gave 10.9%.
With [H][C@@]12CN(C3CCOCC3)C(=O)N1CCN(S(C)(=O)=O)C2 the screen gave -13.41%.
With Cc1cccnc1[C@H](C)NC(=O)Cc1cc2c(cc1Cl)OCCO2 the screen gave -39.68%.
With [H][C@]12C[C@H](CNC(=O)C3CCC3)O[C@@]1([H])CN(C(=O)c1ccno1)C2 the screen gave 13.83%.
With CC1CCCCN1C(=O)CCc1nnc(-c2ccccc2)o1 (centres unmarked) the screen gave 5.109%.
With CCS(=O)(=O)N1CCCC2(COCCN(c3nncs3)C2)C1 (centres unmarked) the screen gave 12.67%.
With O=C(O)C(F)(F)F.[H][C@@]12COC[C@]1(CNC(=O)c1ccsc1)CN(Cc1nccs1)C2 the screen gave 13.42%.
With O=C(Cc1ccsc1)N1Cc2nc(CN3CCCCC3)oc2C1.O=C(O)C(F)(F)F the screen gave 24.3%.
With CCN1CCN(S(=O)(=O)c2cc(C)c(Cl)cc2Cl)CC1 the screen gave 27.68%.
With CC(C)C(=O)N1CCOC[C@H](Oc2ccc(C(F)(F)F)cc2)C1 the screen gave 8.843%.
With Cc1nc(N(C)C)ncc1C(=O)N[C@H]1Cc2ccccc2[C@@H]1N the screen gave 15.38%.
With CCCNC(=O)c1cc2c(c3ccccc3n2C)n1C(=O)N(C)C the screen gave -19.1%.

The last 3 entries again:

SMILES	effect
CC(C)C(=O)N1CCOC[C@H](Oc2ccc(C(F)(F)F)cc2)C1	8.843
Cc1nc(N(C)C)ncc1C(=O)N[C@H]1Cc2ccccc2[C@@H]1N	15.38
CCCNC(=O)c1cc2c(c3ccccc3n2C)n1C(=O)N(C)C	-19.1